{
  "source": "patent US9771394B2",
  "about": "“Antimicrobial polymyxins for treatment of bacterial infections” (priority 2014, dated 2017)",
  "test_system": "Gram-negative pathogens Pseudomonas aeruginosa, Escherichia coli, or Klebsiela pneumoniae",
  "assay": "MIC, Gram-negative panel of Table 1",
  "assay_type": "cell-based",
  "conditions": "Example 19 vs Example 18, Example 20 vs Example 12",
  "from_the_text": "In vitro activity of compounds provided herein may be assessed by standard testing procedures such as the determination of minimum inhibitory concentration (MIC, μg/mL) just as described in “Methods for Dilution Antimicrobial Susceptibility Tests for Bacteria That Grow Aerobically; Approved Standard—Ninth Edition,” published in 2012 by the Clinical and Laboratory Standards Institute, Wayne, Pa., USA. Thus, bacterial colonies grown overnight on Mueller-Hinton Agar plate were selected and suspended in sterile saline to a turbidity of about 80% transmittance, as measured by a spectrophotometer. The suspension was diluted 200-fold with cation-adjusted Mueller-Hinton broth to serve as the inoculum for testing. Two-fold serial dilutions of the test compound were performed in 96-well master plate to arrive at desired concentration. Samples of 10 microliter from each well of the master plate were transferred into respective wells of 96-well assay plate. Bacterial inoculum (90 microliter) was introduced into each well of the assay plate. The assay plate was placed in the incubator at 35° C. for about 24 h (without agitation) followed by the MIC determination. MIC values were determined based on the presence or absence of bacterial growth in wells at the given test agent concentration. MIC value is defined as the lowest concentration of test antibiotic that prevents visible bacterial growth. […]",
  "note": "Some entries share one result that the patent states for a list of compounds. Starred links: 1 amine or outer side, 2 acyl side, 3 side chain; linkers in the order of their positions; H or OH if unused. Positions of bridges follow the written chain, without caps; N, C: chain ends. Non-standard residues stand in square brackets, D forms with d. Residues, ends and D or L forms follow the SMILES beside them. ξ: configuration not given here. Thr(3ξ) = CC(O)[C@H](N)C(=O)O; Suc = O=C(CCC(=O)[*:2])[*:1]; Dab = NCC[C@H](N)C(=O)O",
  "data": [
    {"molecule": "CC(C)C[C@@H]1NC(=O)[C@@H](Cc2ccccc2)NC(=O)[C@H](CCN)NC(=O)[C@@H](NC(=O)[C@H](CCN)NC(=O)[C@@H](NC(=O)[C@H](CCN)NC(=O)CCC(=O)O)C(C)O)CCNC(=O)[C@H](C(C)O)NC(=O)[C@H](CCN)NC(=O)[C@H](CCN)NC1=O", "note": "(stereo partly shown) [Example 19] (Suc-[Dab][Thr(3ξ)][Dab][Dab][Dab][dF]L[Dab][Dab][Thr(3ξ)]; lactam 4-C)", "values": [
      {"measurement": "fold less active than the parent soft drugs (MIC)", "value": "2-4 fold"}
    ]}
  ]
}
